Library screen at single concentrations

T. brucei: 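Whole-parasite assay of Trypanosoma brucei over 72 hours; the read-out is not stated. Tested at 30 µM. The record gives no direction; compounds that gave an IC50 in retests scored well above the rest, so higher reads as stronger inhibition. Values scatter widely below zero; nearly all retest evidence comes from the higher of the two concentrations used. Of about 64,000 compounds tested this way, about 940 (1.5%) reached 50% or more in at least one test.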
Toxoplasma: 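Assay of Toxoplasma gondii numbers, read through their beta-galactosidase reporter with a colour substrate. Concentration: 10 µM. Higher reads as fewer parasites (inferred from which compounds were picked for retests). About 67,000 compounds were tested under these conditions; 0.38% (about 260) showed 50% or more at least once.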

Results are given as percent effect. The record does not define 0% and 100%; most values in the screen are far below 50% and negative numbers occur (in some assays of this library far below -100). This is an unselected part of the compounds tested. A dash means the value is not listed here; it may have been measured.

| # | SMILES | T. brucei | Toxoplasma |
|---|---|---|---|
| 1 | `CCc1nc(CCNC(=O)C2CC2)sc1C` | 7.741% | -5.023% |
| 2 | `CCOc1ccc(NC(C)C(=O)NCCc2cccs2)cc1CO` (stereo not given) | -52.72% | 0.3623% |
| 3 | `CN1CCN(C(=O)c2cc3sccc3n2Cc2ccccc2F)CC1` | 13.82% | -8.506% |
| 4 | `[H][C@@]12COC[C@@H](Cc3nc(C)no3)[C@]1([H])CN(S(=O)(=O)CC)C2` | - | -5.302% |
| 5 | `CCN1CCOCC2(CCCN(C(=O)c3conc3C)C2)C1.O=C(O)C(F)(F)F` (stereo not given) | 2.708% | 2.502% |
| 6 | `O=C(O)C(F)(F)F.O=C(O)C(F)(F)F.c1cc(CN2CCc3ncc(CN4CCCCC4)n3CC2)cs1` | -39.44% | 3.107% |
| 7 | `[H][C@]12CCN(C(=O)c3cc(C)oc3C)C[C@@]1([H])OCCN(C(C)=O)C2` | - | -2.959% |
| 8 | `COc1ccccc1CNC(=O)Cn1nc(-c2ccc(F)cc2)oc1=O` | -35.63% | 24.32% |
| 9 | `CCC(C)CS(=O)(=O)NCCc1csc(N2CCCC2)n1` (stereo not given) | -5.91% | 2.06% |
| 10 | `Cc1cccc(C2CCCN(S(=O)(=O)c3cccnc3)C2)n1` (stereo not given) | 9.132% | -24.43% |
| 11 | `CC(=O)N[C@@H]1CN(C2CCN(c3cccc(C)c3C)CC2)C[C@H]1C(C)C` | -18.61% | -4.237% |
| 12 | `CCn1cc(NC(=O)NCC(c2cccs2)N(C)C)cn1` (stereo not given) | -9.896% | -10.73% |
| 13 | `CC(C)(C)c1ccc(C2(C(=O)NCCCS(C)(=O)=O)CC2)cc1` | -42.21% | 19.05% |
| 14 | `CCOC(C)c1nc(CN2CCN(c3ncc(C)cn3)CC2)cs1` (stereo not given) | -30.99% | 3.663% |
| 15 | `COc1cccc(-c2cccc(N3CCC(N[C@@H]4CCOC4)CC3)c2)c1` | 9.147% | 25.91% |
| 16 | `CCOc1ccc(NC2CCN(C)C2=O)cn1` (stereo not given) | -21.72% | - |
| 17 | `CN1CCC(N(Cc2ccccc2)C(=O)c2ccn3ccnc3c2)CC1` | -66.68% | 4.628% |
| 18 | `CCn1nc(C)c(CN(CCCN(C)C)Cc2ccccn2)c1C` | -51.71% | 5.078% |
| 19 | `c1ccc(C2CN(C3CC3)CC3(CCN(Cc4ncc[nH]4)CC3)C2)cc1` (stereo not given) | -68.89% | 5.149% |
| 20 | `CCOC(C)c1nc(CN2CCC(NC(C)C)CC2)cs1` (stereo not given) | -52.44% | -8.333% |
| 21 | `CC(C)c1nn(C)c(N(C)C)c1CNCc1ccc2c(c1)OCO2` | -16.13% | -5.964% |
| 22 | `O=C1CC2(CCSC2)C(=O)N1Cc1coc(-c2ccccc2)n1` (stereo not given) | -43.18% | -0.6732% |
| 23 | `Cc1cnc(N2C(=O)CSC2c2ccc(N(C)C)cc2)s1` (stereo not given) | -29.52% | 3.927% |
| 24 | `CCC1c2ccsc2CCN1C(=O)NCCc1ccccn1` (stereo not given) | 6.197% | 1.252% |
| 25 | `CN(Cc1cn2ccccc2n1)C1CCCN(c2cccnn2)C1` (stereo not given) | -6.003% | 0.8899% |
| 26 | `COc1ccccc1S(=O)(=O)N1CCC2(CC1)OCCCC2O` (stereo not given) | -73.18% | 0.7092% |
| 27 | `Cc1cnccc1N1CCCN(C(=O)CCCn2ccnc2C)CC1` | -25.76% | 4.916% |
| 28 | `O=C(NCc1ccccc1CN1CCCC1=O)Nc1nncs1` | -13.05% | -0.4813% |
| 29 | `COc1ccc2c(c1)nc1n2[C@@H](CNCc2cnn(C)c2)COC1` | -11.95% | -2.188% |
| 30 | `c1ccc(-c2nnc(CN3CCOC(Cn4cccn4)C3)o2)cc1` (stereo not given) | - | -1.174% |
| 31 | `COc1cccc(COCC(O)CN(C)c2ccc(C)cc2C)c1` (stereo not given) | -49.32% | -3.718% |
| 32 | `COC(=O)C1CCN(C(=O)Cn2ccc(-c3ccc(F)cc3)n2)CC1` | 4.679% | -8.201% |
| 33 | `COC(=O)NCC(=O)N1CCCn2nc(CN3CC[C@H](F)C3)cc2C1` | -37.57% | -17.05% |
| 34 | `CCC(=O)N1CCC2(COCc3c(C)nc(N(C)C)nc32)C1` (stereo not given) | -34.45% | -0.5755% |
| 35 | `Cc1cc(C)c(C#N)c(N2CCC3(CCCN(CCO)C3=O)C2)n1` (stereo not given) | -17.57% | -1.218% |
| 36 | `COc1ccccc1CCNC(=O)CN1CCCC1c1noc(C)n1` (stereo not given) | -23.73% | -25.55% |
| 37 | `Cc1ccc(-c2csc3c(=O)[nH]c(N4CCCC(C(=O)O)C4)nc23)cc1` (stereo not given) | -0.3917% | 15.7% |
| 38 | `Cc1nc(CN2CCN(C(=O)c3scnc3C)CC2)cs1` | -7.757% | 0.9315% |
| 39 | `CCOc1ccc(CN2CCc3nc4ccsc4c(=O)n3CC2)cc1.Cl` | 6.943% | -1.464% |
| 40 | `Cc1c(CN2CCCC(C(=O)CCc3ccccc3)C2)cc(C#N)n1C` (stereo not given) | -78.14% | 15.4% |
| 41 | `COc1ccccc1Cc1nnc(SCCS(C)(=O)=O)o1` | -13.47% | -7.116% |
| 42 | `O=C(CNc1cccc2c1CCCC2)Nc1ccccc1Br` | -9.248% | 0.9855% |
| 43 | `COCc1cccc(NC(C)C(=O)N(C)Cc2cccc(F)c2)c1` (stereo not given) | -29.6% | 1.542% |

Data taken from ChEMBL document CHEMBL3988442, “University of Dundee, Small-Polar-MMV Screening Library” (2021).